Measurements as given in the supplement of paper PMC6411743.
± gives the standard deviation of the averaged measurements. The entries are a selection whose mix differs from that of the whole data set. Small differences around the control level are noise.

Chains of the proteins cited; added tags and fusions are not shown. Lines headed by an entry give the natural chain unless they say otherwise; changes in a name come on top.
UniProt Q9NXA8: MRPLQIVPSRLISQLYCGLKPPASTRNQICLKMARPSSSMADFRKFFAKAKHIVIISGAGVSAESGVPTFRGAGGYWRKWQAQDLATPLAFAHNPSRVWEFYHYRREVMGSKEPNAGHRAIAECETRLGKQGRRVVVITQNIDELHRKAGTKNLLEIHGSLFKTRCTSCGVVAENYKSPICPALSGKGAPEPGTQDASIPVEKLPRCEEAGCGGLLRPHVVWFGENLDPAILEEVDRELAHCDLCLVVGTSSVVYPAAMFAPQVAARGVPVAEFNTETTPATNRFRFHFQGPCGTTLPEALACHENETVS
UniProt Q9NUT2: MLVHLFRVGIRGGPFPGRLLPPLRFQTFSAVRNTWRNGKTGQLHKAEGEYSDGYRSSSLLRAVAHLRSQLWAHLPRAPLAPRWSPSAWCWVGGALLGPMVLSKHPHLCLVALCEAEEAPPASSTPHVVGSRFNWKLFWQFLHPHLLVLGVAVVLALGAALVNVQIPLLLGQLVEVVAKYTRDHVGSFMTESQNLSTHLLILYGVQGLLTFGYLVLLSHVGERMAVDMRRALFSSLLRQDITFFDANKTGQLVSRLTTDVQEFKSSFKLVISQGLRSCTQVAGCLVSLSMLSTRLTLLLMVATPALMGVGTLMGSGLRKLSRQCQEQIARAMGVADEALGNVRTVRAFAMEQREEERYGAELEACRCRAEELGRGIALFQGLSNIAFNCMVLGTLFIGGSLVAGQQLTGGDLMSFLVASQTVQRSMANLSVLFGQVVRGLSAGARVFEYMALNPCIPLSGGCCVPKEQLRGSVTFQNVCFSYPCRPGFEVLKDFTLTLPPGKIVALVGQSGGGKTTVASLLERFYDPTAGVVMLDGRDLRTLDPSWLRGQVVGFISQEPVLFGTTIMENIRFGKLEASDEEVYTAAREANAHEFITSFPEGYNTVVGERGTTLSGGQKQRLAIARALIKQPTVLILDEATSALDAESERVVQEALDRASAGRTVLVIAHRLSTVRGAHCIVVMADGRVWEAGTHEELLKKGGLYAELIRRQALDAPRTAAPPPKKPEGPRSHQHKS
UniProt Q9NQS1: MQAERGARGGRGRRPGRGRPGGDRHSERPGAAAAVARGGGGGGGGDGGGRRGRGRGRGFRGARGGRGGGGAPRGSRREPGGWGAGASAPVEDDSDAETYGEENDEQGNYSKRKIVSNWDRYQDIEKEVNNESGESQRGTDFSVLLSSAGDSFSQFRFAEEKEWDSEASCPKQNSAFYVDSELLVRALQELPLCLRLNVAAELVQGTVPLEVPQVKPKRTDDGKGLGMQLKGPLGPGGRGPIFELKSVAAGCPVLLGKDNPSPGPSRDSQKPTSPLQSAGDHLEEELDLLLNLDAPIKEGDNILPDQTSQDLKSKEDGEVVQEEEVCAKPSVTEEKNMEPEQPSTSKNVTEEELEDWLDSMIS
UniProt Q9NQ34: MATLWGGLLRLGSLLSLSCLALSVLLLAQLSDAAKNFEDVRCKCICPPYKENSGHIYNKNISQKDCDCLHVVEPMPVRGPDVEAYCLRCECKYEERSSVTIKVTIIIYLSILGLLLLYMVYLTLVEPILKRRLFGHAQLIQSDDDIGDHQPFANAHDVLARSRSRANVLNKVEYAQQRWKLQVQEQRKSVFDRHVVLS
UniProt Q9NQT4, whole entry: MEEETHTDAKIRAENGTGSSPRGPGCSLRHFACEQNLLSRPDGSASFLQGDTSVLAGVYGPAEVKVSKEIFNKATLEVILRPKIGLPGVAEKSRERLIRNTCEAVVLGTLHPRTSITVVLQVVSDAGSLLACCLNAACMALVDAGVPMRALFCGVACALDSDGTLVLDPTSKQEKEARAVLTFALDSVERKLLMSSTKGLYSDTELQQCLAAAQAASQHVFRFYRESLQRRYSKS
UniProt Q9NQ86: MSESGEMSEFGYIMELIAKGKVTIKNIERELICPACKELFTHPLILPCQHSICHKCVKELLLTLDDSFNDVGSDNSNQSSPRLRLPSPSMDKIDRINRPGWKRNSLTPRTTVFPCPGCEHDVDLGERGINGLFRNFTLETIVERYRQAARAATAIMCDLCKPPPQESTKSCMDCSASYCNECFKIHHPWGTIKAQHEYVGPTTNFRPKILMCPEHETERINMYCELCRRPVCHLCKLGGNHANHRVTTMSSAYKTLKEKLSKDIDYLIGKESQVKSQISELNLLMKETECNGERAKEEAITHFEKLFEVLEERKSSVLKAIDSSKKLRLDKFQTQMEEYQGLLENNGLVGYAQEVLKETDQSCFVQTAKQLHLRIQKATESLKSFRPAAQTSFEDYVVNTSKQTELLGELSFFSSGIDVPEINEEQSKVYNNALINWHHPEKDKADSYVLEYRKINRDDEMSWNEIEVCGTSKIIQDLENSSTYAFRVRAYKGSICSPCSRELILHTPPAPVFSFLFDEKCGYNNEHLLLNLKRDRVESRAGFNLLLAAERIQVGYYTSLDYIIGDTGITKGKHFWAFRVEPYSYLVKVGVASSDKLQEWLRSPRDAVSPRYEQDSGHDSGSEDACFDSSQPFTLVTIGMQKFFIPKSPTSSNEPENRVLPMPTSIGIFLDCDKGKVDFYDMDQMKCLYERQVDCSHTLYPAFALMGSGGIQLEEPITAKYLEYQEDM
UniProt Q9NQT8: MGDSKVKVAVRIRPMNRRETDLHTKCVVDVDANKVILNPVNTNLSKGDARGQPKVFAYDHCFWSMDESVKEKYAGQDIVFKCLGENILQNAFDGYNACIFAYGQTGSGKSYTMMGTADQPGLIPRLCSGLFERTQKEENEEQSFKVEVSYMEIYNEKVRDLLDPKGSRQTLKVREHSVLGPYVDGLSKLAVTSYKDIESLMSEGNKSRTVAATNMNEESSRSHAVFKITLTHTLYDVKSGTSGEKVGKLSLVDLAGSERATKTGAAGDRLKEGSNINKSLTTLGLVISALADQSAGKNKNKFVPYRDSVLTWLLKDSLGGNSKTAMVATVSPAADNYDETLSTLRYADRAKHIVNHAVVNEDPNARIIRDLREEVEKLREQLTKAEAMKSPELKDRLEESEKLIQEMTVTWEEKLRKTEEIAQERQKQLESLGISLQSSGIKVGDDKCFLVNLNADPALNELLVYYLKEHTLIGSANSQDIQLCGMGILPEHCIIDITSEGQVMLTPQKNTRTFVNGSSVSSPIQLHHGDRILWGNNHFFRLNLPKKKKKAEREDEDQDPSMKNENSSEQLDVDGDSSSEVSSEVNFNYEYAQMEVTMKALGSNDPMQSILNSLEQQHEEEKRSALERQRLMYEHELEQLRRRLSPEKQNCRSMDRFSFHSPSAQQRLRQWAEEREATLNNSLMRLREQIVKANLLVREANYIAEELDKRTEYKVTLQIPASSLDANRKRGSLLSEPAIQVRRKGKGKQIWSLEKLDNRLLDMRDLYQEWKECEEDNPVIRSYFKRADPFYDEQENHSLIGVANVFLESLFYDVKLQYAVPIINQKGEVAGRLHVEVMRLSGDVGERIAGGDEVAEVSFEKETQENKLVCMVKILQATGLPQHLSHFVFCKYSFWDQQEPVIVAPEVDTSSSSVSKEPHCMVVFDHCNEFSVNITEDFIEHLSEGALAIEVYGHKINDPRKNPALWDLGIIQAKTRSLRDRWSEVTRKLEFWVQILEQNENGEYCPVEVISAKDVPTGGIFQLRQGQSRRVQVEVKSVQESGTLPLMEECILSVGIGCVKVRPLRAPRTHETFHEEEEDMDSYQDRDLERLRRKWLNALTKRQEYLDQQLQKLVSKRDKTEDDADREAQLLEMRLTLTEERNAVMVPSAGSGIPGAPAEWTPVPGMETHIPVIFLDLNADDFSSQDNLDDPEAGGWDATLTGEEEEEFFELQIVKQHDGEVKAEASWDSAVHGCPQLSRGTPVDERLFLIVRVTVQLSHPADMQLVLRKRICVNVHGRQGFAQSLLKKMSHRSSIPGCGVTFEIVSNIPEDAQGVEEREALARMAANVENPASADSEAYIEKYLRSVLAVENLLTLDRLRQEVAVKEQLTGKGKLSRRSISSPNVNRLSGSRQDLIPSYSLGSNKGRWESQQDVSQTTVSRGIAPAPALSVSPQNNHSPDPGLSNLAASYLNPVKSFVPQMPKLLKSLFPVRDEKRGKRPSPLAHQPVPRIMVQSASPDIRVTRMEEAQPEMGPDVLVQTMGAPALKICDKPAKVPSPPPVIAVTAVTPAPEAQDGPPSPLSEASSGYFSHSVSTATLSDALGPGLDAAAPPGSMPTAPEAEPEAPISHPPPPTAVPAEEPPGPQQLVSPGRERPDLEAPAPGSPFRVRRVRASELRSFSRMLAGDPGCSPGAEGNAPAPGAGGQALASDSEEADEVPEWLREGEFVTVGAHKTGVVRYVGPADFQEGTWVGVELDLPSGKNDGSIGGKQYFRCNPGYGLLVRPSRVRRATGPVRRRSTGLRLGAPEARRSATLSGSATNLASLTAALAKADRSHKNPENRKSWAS
UniProt Q9NRK6: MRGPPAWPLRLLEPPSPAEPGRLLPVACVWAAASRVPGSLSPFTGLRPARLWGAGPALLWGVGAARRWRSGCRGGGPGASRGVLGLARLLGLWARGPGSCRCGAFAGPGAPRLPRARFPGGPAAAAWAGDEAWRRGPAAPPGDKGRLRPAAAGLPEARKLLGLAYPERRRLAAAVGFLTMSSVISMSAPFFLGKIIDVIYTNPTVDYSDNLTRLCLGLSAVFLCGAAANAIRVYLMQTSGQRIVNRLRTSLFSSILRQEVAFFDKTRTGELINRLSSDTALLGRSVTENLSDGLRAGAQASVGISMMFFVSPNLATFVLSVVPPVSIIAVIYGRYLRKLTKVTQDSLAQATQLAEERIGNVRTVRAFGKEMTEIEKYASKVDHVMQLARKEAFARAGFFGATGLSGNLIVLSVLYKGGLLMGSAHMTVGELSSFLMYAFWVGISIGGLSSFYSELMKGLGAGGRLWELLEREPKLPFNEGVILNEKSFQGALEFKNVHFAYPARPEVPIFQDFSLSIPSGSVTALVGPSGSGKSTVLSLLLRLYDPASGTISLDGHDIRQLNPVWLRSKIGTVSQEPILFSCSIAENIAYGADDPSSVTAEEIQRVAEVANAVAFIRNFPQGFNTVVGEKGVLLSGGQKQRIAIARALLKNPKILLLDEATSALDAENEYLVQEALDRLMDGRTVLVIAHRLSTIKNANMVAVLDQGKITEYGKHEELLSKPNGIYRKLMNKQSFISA
UniProt Q9NWV8, whole entry: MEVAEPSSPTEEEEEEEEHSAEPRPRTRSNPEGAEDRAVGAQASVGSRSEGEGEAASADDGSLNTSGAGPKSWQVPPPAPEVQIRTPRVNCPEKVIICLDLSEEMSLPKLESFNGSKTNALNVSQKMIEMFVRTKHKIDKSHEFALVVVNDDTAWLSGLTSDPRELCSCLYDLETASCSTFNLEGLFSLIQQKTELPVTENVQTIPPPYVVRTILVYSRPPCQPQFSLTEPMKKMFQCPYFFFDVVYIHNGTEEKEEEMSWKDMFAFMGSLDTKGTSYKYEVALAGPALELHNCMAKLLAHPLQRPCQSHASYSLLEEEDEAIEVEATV
UniProt Q9NRA2: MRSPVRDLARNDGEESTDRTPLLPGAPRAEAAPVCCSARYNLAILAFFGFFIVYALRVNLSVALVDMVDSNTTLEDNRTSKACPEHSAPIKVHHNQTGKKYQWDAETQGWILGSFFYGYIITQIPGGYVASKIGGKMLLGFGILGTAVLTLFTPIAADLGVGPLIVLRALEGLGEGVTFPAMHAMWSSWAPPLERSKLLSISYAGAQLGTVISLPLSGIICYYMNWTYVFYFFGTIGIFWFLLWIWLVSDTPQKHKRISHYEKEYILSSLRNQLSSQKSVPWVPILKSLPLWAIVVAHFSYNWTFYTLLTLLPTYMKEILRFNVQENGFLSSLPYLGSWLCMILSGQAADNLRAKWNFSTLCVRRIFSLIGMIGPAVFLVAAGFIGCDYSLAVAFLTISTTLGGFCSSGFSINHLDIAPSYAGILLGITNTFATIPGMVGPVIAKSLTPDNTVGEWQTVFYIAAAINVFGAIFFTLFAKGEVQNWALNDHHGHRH
UniProt Q9NZI7: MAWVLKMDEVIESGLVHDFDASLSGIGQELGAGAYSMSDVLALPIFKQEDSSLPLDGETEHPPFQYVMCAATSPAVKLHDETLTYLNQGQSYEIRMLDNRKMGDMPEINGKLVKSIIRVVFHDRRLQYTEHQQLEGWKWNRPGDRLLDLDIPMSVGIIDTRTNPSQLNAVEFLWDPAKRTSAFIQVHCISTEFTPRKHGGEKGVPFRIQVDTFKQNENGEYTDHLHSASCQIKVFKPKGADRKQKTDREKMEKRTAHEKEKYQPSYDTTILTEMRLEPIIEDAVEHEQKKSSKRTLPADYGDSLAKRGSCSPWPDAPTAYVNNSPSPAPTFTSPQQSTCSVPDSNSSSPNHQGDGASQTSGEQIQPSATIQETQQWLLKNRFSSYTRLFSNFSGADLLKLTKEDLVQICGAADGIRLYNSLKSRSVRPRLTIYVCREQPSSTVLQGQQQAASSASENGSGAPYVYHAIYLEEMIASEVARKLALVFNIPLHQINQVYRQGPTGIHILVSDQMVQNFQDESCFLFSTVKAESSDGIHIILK

Compound: Nc1ncnc2c1ncn2[C@@H]1O[C@H](COP(=O)(O)OP(=O)(O)OP(=O)(O)O)[C@@H](O)[C@H]1O [adenosine triphosphate]
Assay: NP40-soluble protein abundance relative to vehicle (solubility fold change) (ratio); higher = more soluble protein in presence of ATP
How it was run: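 Jurkat crude lysate (Dounce-homogenised) was treated with eight concentrations from 0.1 to 10 mM for 10 min at room temperature, then 3 min at 37 °C. It was solubilised with 0.8% NP40 and benzonase (60 min, 4 °C) and ultracentrifuged, and the supernatant was TMT-labelled for LC-MS/MS. Intensities were vsn-normalised, and the value is the fold change against the NP40-processed vehicle per replicate, from three independent experiments.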

Target | NP40-soluble protein abundance (concentration: 0.1mM) | NP40-soluble protein abundance (concentration: 0.5mM)
SIRT5 (UniProt Q9NXA8) | 1.01 ± 0.073 | 0.988 ± 0.036
UniProt Q9NUT2 and related entries | 1.05 ± 0.063 | 1 ± 0.024
UniProt Q9NZL9 and related entries | 1.01 ± 0.049 | 1.02 ± 0.045
AVEN (UniProt Q9NQS1) | 0.849 ± 0.029 | 0.777 ± 0.027
TMEM9B (UniProt Q9NQ34) | 0.985 ± 0.054 | 0.9 ± 0.038
POLE3 (UniProt Q9NRF9) | 0.87 ± 0.21 | 0.859 ± 0.25
MED4 (UniProt Q9NPJ6) | 0.953 ± 0.07 | 0.943 ± 0.038
EXOSC5 (UniProt Q9NQT4) | 1.06 ± 0.011 | 1.04 ± 0.063
UniProt Q9NVU7 and related entries | 1.01 ± 0.02 | 1.03 ± 0.032
UniProt Q9P1Z2 and related entries | 1.02 ± 0.08 | 0.993 ± 0.037
UniProt Q9NQ86 and related entries | 1.02 ± 0.031 | 0.979 ± 0.045
UniProt Q9NWS8 and related entries | 1.06 ± 0.067 | 0.98 ± 0.11
UniProt Q9NX47 | 1.03 ± 0.045 | 0.991 ± 0.12
KIF13B (UniProt Q9NQT8) | 1.02 ± 0.022 | 1.05 ± 0.05
ABCB10 (UniProt Q9NRK6) | 1.05 ± 0.058 | 1.04 ± 0.062
UniProt Q9NWV8 | 0.982 ± 0.012 | 0.994 ± 0.036
SLC17A5 (UniProt Q9NRA2) | 0.894 ± 0.017 | 0.847 ± 0.15
Q9NPA5 and related entries (UniProt Q9NTW7) | 1.02 ± 0.039 | 1 ± 0.052
UBP1 (UniProt Q9NZI7) | 0.962 ± 0.021 | 0.996 ± 0.016
PLSCR3 (UniProt Q9NRY6) | 1.113 ± 0.01 | 0.994 ± 0.039
FBXO28 (UniProt Q9NVF7) | 1.04 ± 0.025 | 1.11 ± 0.047
TM7SF3 (UniProt Q9NS93) | 1.02 ± 0.038 | 0.958 ± 0.02

Taken from above:
Under NP40-soluble protein abundance (concentration: 0.5mM), UniProt Q9NVU7 and related entries shows 1.03 ± 0.032
Under NP40-soluble protein abundance (concentration: 0.1mM), FBXO28 (UniProt Q9NVF7) shows 1.04 ± 0.025
